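Assay of Toxoplasma gondii numbers, read through their beta-galactosidase reporter with a colour substrate. Concentration: 10 µM. Higher reads as fewer parasites (inferred from which compounds were picked for retests). About 67,000 compounds were tested under these conditions; 0.38% (about 260) showed 50% or more at least once.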

Results are given as percent effect.
The record does not define 0% and 100%; most values in the screen are far below 50% and negative numbers occur (in some assays of this library far below -100).
Compounds were drawn at random from those tested, without regard to their results.

{"structure": "O=C(Nc1ccncc1)NC1CCN(c2ccccc2Cl)C1=O", "stereo": "stereo not drawn", "Percent Effect": 9.413}
{"structure": "NC(=O)c1cccc(NC(=O)CSc2ccc3c(c2)CCC3)c1", "Percent Effect": 0.5895}
{"structure": "CC(C)OCCCN(Cc1ccncc1)Cc1cc(F)cc(F)c1.Cl", "Percent Effect": -12.51}
{"structure": "CN(C)c1ncc(-c2cncn2CCc2ccc3c(c2)OCCO3)cn1.Cl", "Percent Effect": -5.319}
{"structure": "CCCc1n[nH]c(C2CN(C(=O)c3ccc4c(c3)COC4)CCO2)n1", "stereo": "stereo not drawn", "Percent Effect": -11.75}
{"structure": "Cc1nsc(NCCNS(=O)(=O)c2cccc(Cl)c2)n1", "Percent Effect": 5.723}
{"structure": "CC(OCC1CC1)C(=O)Nc1ncn(CC(=O)N2CCCCCC2)n1", "stereo": "stereo not drawn", "Percent Effect": -0.6916}
{"structure": "CC(C)c1cc(C(=O)NCCc2nc3c(s2)CCC3)n(C)n1", "Percent Effect": 3.721}
{"structure": "O=C(CCC1CCCN(S(=O)(=O)C2CC2)C1)Nc1ccc(Cl)cc1", "stereo": "stereo not drawn", "Percent Effect": -11.63}
{"structure": "Cc1nocc1C(=O)N1CCCC2(CCN(c3cnn(C)c3)C2=O)C1", "stereo": "stereo not drawn", "Percent Effect": 9.541}
{"structure": "COCC1CN(Cc2sccc2C)Cc2nnn(CC3CC3)c21.O=C(O)C(F)(F)F", "stereo": "stereo not drawn", "Percent Effect": -3.556}
{"structure": "COCCn1nc(C(=O)N(C)Cc2ccc3ccccc3c2)ccc1=O", "Percent Effect": -23.45}
{"structure": "Cc1ccc(NC2CCN(C(=O)c3nccc4ccccc34)CC2)nn1", "Percent Effect": -13.3}
{"structure": "Cn1c(C(F)(F)F)nn(CCNC(=O)c2cnc3ccccc3n2)c1=O", "Percent Effect": 0.6568}
{"structure": "COc1ccc(C2CNCCN2C(=O)c2cccc3cccnc23)cc1", "stereo": "stereo not drawn", "Percent Effect": -7.394}
{"structure": "CCS(=O)(=O)N1CCC2(CCCC(=O)N2C)CC1", "Percent Effect": -48.34}
{"structure": "COc1cccc(CNC(=O)N2CCN3CCNC(=O)C3C2)c1", "stereo": "stereo not drawn", "Percent Effect": 3.609}
{"structure": "[H][C@]12CC[C@]([H])(CN(C(=O)N(C)C)C1)N(C(=O)CCCn1cncn1)C2", "Percent Effect": 1.039}
{"structure": "CN1CCN(C2COC3(CCN(c4ccc(C#N)cc4)CC3)C2)CC1.O=C(O)C(F)(F)F", "stereo": "stereo not drawn", "Percent Effect": 12.17}
{"structure": "O=C(O)C(F)(F)F.O=c1ccc2c(n1CC1CCOCC1)CCN(Cc1ccoc1)CC2", "Percent Effect": -31.55}
{"structure": "CN1CC2(CCN(C(=O)CCCOCc3ccccc3)C2)OC1=O", "stereo": "stereo not drawn", "Percent Effect": -4.329}
{"structure": "COc1coc(C(=O)Nc2nc(C)cs2)cc1=O", "Percent Effect": 13.78}
{"structure": "CCNC(c1cccnc1)c1cc(C)cc(C)c1", "stereo": "stereo not drawn", "Percent Effect": 14.23}
{"structure": "O=C1CC2(CCN(C(=O)c3ccccc3)C2)Nc2ccccc2N1", "stereo": "stereo not drawn", "Percent Effect": -5.97}
{"structure": "COc1ccccc1OCC(=O)NCC(O)(c1ccccc1)C1CC1", "stereo": "stereo not drawn", "Percent Effect": 0.6568}
{"structure": "Cc1cc(C)cc(S(=O)(=O)NCC2CNCCOC2)c1", "stereo": "stereo not drawn", "Percent Effect": 12.29}
{"structure": "CCC(NC(=O)Cn1ccc(=O)n(C)c1=O)c1ccc(OC)cc1", "stereo": "stereo not drawn", "Percent Effect": 7.111}
{"structure": "CC(C(N)=O)N(C)CCCc1cc(-c2ccccc2)no1", "stereo": "stereo not drawn", "Percent Effect": 3.123}
{"structure": "CS(=O)(=O)c1ccccc1N[C@@H]1c2ccccc2C[C@@H]1O", "Percent Effect": 0.777}
{"structure": "O=C(O)C(F)(F)F.O=C(O)C(F)(F)F.O=S(=O)(c1ccccc1)N1CCC2(CCCN2Cc2cccnc2)C1", "stereo": "stereo not drawn", "Percent Effect": -13.06}
{"structure": "O=C(O)C(F)(F)F.O=S(=O)(c1ccccc1)N1CCC2(CCCN2Cc2cccc(Cl)c2)C1", "stereo": "stereo not drawn", "Percent Effect": 2.287}
{"structure": "COc1cc(CNCCc2nc(C)cs2)cc2c1OCCO2.Cl", "Percent Effect": -9.033}
{"structure": "O=C(Nc1cnn(CC(=O)N2CCCCO2)c1)c1ccccn1", "Percent Effect": 9.256}
{"structure": "O=C(C1CCCc2[nH]ncc21)N1CCCC2(C1)OCCO2", "stereo": "stereo not drawn", "Percent Effect": -5.096}
{"structure": "CN(C)CCn1ccc2cc(NC(=O)NCc3ncnn3C)ccc21", "Percent Effect": 1.99}
{"structure": "[H][C@@]12CS(=O)(=O)C[C@]1([H])N(C(=O)c1cc(C(C)C)no1)CCN2CC=C(C)C", "Percent Effect": 4.852}
{"structure": "CC(C)Oc1ccc(CNC(=O)C2CCC(=O)N2)cn1", "stereo": "stereo not drawn", "Percent Effect": -1.617}
{"structure": "Cc1ccc(C(=O)O)c(N2CC(C)(C)[C@@](C)(O)C2)n1", "Percent Effect": -2.754}
{"structure": "Cc1nc2c(c(NC(C)C)n1)CCN(C(=O)CCO)CC2", "Percent Effect": -0.9559}
{"structure": "COc1cc(N2CCCC(c3nccn3CCN(C)C)C2)nc(N)n1", "stereo": "stereo not drawn", "Percent Effect": -4.841}
{"structure": "Cc1cccc(N2CCN(C(=O)CN3CCN(CCO)CC3)CC2)c1", "Percent Effect": 1.007}
{"structure": "CCN(CC1CCOC1)C(=O)c1cc(OC)c2c(c1)OCCO2", "stereo": "stereo not drawn", "Percent Effect": -2.937}

The first 4 entries again:

structure,Percent Effect
O=C(Nc1ccncc1)NC1CCN(c2ccccc2Cl)C1=O (stereo not drawn),9.413%
NC(=O)c1cccc(NC(=O)CSc2ccc3c(c2)CCC3)c1,0.5895%
CC(C)OCCCN(Cc1ccncc1)Cc1cc(F)cc(F)c1.Cl,-12.51%
CN(C)c1ncc(-c2cncn2CCc2ccc3c(c2)OCCO3)cn1.Cl,-5.319%

Measurements from “University of Dundee, Small-Polar-MMV Screening Library” (2021), ChEMBL document CHEMBL3988442.